# The supplement of paper PMC10849652
# By UniProt entry, the sequences of proteins in these tests, tags left out. Where a name states a change or a piece, a line headed by the entry shows the natural chain unless it says otherwise.
# UniProt Q9Y5X0: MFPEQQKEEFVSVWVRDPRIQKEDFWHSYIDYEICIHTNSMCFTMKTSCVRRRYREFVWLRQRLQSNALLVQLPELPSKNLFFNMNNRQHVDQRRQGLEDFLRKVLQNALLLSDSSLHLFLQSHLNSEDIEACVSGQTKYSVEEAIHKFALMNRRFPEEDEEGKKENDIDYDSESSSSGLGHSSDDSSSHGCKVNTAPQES
# UniProt B2RUZ4: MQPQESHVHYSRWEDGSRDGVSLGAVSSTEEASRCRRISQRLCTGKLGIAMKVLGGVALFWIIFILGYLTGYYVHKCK
# UniProt Q9NX45: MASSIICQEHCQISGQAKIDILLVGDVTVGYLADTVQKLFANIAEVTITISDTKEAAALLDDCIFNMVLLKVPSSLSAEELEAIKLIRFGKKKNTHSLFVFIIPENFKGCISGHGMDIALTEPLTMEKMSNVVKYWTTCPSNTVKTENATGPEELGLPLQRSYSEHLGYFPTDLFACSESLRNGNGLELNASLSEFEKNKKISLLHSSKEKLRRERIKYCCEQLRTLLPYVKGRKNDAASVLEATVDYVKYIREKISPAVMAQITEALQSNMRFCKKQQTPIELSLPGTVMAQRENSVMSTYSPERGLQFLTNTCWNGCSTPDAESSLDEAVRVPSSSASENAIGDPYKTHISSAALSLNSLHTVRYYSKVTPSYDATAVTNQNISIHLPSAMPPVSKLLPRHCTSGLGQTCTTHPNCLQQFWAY
# UniProt Q6X4U4: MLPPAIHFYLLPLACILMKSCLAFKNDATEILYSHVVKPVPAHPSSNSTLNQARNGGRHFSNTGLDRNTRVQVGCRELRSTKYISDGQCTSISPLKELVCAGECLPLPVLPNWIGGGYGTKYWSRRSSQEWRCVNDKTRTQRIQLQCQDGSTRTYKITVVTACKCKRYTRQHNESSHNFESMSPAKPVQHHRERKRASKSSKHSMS
# UniProt Q7Z3B0: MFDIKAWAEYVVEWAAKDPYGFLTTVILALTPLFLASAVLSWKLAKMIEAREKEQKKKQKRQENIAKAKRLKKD
# UniProt Q92966: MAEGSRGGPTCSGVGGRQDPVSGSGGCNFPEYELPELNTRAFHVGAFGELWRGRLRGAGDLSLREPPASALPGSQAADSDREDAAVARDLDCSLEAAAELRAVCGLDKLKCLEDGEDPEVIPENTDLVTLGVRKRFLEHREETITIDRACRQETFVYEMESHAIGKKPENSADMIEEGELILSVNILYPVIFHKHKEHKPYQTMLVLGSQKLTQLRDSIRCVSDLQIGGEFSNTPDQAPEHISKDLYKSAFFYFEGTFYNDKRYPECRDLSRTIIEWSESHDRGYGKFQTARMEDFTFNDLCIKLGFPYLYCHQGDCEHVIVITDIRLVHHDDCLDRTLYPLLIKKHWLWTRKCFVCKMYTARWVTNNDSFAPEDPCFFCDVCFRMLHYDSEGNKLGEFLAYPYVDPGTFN
# UniProt Q5SQN1: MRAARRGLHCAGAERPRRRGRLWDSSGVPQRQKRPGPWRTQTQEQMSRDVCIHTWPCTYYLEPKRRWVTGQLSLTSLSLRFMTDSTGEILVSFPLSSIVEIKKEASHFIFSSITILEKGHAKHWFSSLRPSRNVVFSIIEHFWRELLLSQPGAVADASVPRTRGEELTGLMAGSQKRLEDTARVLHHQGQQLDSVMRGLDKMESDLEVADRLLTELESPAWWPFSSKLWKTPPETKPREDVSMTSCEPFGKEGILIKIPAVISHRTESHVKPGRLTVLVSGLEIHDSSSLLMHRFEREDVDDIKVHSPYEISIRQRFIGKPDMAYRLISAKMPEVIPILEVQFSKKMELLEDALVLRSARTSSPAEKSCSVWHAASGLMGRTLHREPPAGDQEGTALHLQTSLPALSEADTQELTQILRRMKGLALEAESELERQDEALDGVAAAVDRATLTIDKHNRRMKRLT
# UniProt Q02447: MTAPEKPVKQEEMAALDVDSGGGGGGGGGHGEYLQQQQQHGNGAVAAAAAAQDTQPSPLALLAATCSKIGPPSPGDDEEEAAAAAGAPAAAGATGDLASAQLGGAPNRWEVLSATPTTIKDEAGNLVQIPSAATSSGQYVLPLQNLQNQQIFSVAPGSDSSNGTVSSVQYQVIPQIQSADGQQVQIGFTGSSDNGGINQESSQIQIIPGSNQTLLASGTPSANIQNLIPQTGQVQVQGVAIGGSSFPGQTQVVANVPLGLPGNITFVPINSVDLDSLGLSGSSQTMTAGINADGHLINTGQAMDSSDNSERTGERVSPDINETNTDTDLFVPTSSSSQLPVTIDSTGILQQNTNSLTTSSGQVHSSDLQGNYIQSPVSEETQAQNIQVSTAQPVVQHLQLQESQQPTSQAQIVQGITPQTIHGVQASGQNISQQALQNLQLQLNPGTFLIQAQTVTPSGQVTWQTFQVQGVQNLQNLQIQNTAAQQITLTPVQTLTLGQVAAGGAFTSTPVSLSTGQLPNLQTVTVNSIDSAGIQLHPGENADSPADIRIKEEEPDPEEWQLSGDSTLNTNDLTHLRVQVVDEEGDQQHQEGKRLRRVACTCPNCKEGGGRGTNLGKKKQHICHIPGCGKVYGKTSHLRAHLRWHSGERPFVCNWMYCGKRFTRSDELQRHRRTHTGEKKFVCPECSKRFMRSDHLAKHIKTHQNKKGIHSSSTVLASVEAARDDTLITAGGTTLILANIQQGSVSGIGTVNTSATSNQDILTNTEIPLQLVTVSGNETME
# UniProt Q8WV41: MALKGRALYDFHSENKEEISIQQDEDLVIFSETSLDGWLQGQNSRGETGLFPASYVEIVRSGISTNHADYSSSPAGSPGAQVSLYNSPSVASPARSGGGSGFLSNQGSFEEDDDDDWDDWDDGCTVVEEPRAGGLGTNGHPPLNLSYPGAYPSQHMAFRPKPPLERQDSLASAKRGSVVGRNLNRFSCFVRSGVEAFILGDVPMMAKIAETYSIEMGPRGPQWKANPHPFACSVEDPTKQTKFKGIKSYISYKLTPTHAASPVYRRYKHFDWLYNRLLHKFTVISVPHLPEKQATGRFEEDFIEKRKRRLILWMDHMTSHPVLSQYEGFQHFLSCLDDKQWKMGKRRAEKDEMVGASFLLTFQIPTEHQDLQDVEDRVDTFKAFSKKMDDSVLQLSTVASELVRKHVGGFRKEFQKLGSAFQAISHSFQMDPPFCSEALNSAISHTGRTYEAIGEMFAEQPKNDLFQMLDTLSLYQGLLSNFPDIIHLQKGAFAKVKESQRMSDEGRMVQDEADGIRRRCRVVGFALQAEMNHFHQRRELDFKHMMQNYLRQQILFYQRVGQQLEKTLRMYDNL
# UniProt P17405: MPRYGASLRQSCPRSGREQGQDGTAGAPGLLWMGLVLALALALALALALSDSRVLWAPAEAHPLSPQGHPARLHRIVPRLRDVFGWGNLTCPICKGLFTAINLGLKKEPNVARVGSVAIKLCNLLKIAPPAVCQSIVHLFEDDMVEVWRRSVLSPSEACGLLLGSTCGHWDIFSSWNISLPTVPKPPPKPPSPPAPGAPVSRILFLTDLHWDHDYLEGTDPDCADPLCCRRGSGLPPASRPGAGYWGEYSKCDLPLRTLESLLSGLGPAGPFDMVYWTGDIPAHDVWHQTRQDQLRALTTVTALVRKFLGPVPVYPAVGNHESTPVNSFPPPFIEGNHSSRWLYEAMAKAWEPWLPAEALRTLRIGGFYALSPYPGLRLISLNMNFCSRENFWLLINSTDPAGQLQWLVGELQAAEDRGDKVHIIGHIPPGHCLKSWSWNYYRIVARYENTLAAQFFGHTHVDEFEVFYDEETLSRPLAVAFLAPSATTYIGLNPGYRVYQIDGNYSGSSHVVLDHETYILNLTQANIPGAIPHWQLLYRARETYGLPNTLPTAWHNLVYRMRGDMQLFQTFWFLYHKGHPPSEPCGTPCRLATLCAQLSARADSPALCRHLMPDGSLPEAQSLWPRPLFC
# UniProt Q5VWJ9: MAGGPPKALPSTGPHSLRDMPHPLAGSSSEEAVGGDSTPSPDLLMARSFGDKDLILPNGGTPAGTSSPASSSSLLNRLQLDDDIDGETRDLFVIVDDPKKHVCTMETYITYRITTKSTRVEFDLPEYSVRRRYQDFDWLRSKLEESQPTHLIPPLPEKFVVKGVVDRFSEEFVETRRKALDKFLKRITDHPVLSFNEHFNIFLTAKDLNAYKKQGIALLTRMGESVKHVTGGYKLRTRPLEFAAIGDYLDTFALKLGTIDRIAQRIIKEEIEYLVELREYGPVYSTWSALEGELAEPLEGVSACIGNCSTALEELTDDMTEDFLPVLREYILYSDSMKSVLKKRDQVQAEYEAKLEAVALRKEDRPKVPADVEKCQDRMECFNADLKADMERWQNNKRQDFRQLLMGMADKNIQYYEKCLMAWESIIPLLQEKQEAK
# UniProt Q92485: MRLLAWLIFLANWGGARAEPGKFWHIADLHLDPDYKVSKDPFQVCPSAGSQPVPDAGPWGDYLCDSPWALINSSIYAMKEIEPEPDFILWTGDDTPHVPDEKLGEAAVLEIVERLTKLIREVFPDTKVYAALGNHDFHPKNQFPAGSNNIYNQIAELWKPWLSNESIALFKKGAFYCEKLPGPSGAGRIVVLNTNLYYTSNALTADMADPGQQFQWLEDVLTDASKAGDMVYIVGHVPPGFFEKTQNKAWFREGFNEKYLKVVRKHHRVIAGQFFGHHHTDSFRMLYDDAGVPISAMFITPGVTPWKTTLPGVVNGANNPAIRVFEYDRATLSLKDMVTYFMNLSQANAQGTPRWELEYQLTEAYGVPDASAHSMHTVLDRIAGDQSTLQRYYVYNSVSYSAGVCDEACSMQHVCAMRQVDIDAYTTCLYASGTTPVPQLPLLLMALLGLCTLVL
# UniProt Q9NS25: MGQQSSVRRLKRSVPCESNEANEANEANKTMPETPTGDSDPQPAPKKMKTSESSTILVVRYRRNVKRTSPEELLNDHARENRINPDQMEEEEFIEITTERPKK
# UniProt P0DMW3: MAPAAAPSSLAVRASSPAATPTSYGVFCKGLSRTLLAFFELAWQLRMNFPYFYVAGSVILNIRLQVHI
# UniProt Q13487, whole entry, looked up: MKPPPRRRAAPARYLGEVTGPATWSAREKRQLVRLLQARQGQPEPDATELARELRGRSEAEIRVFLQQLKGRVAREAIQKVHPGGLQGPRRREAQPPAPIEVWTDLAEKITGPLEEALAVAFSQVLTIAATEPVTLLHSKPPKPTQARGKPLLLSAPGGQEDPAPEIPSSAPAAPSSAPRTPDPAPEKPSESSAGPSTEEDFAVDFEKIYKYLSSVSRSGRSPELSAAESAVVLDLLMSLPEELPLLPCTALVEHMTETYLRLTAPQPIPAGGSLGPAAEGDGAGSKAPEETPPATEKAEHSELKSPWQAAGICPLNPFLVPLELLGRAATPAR
# UniProt Q6STE5, whole entry, looked up: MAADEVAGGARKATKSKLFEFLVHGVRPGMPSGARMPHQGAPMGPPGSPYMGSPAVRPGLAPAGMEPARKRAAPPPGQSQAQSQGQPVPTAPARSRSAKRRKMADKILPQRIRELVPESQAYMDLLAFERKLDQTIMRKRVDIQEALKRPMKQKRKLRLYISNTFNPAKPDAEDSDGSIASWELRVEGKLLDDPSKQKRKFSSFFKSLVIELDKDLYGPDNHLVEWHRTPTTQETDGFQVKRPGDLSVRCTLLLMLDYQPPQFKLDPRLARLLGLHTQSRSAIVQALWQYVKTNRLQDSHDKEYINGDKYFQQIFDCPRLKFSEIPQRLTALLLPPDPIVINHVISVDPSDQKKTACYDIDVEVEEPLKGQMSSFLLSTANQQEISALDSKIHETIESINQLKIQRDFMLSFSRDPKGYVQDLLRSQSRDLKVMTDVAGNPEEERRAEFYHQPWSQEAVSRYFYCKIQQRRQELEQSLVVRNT
# UniProt Q8TEQ0: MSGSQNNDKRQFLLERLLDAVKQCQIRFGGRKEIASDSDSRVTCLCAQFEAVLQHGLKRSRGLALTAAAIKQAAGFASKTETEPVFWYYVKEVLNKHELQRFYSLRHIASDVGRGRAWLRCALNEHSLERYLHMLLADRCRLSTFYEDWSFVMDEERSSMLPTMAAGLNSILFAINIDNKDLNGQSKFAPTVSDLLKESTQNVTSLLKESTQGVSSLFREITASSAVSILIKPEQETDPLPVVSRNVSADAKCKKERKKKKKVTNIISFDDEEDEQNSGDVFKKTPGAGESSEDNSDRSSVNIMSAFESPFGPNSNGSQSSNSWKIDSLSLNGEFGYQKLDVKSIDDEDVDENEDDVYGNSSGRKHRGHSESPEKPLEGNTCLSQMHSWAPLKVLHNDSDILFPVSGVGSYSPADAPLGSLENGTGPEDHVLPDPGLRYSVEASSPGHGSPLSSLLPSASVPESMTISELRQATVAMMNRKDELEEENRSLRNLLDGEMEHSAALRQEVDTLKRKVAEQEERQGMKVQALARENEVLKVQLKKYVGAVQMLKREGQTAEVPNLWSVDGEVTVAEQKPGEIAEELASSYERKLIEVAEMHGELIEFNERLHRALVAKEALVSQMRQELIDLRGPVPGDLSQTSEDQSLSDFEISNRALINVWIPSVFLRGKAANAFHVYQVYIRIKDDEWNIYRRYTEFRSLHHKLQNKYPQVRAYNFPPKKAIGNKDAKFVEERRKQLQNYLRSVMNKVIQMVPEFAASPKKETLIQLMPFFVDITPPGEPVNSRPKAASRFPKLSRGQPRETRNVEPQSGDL
# UniProt P58511: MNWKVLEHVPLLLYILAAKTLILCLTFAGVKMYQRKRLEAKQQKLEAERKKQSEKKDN
# The list shows a part of the results.
# How the values were obtained:
# Assay in all cases: log2 fold change, soluble protein after heating vs DMSO (PISA); higher = thermal stabilisation; K562 lysate, 10 uM; active = over 0.2 and 3.5 SD of the protein, either way, in both replicates (recomputed)
# [1] = compound: C1=CC=C(C=C1)[C@H](COC2=CC3=C(C=C2)NC(=O)N3)NC(=O)C4=CC=CN(C4=O)CC5=CC(=C(C=C5)F)F
# Summary of the method: (§1)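 To prepare the extract, K562 pellets were dounce-homogenised in PBS pH 7.4 with 1 mM MgCl2, giving crude material at 1 mg/mL protein. This was treated with 10 μM compound for 30 min, then heated in aliquots for 3 min over 48°C-58°C before pooling and addition of NP-40 to 0.5% at 4°C. Centrifugation at 21,000xg for 90 min left soluble protein in the supernatant, which TMTpro 16plex LC-MS/MS quantified with equalised channel sums. Results are log-two fold changes in thermal stability compared with solvent controls, from duplicates.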
# [2] = compound: CC1=C(SC2=C1C(=N[C@H](C3=NN=C(N32)C)CC(=O)N)C4=CC=C(C=C4)Cl)C
# Summary of the method: as §1
# [3] = compound: Cc1sc2c(c1C)C(c1ccc(Cl)cc1)=N[C@@H](CC(=O)OC(C)(C)C)c1nnc(C)n1-2
# Summary of the method: as §1
# [4] = compound: c1ccc([C@@H]2C[C@H]2NC2CCNCC2)cc1
# Summary of the method: as §1
# [5] = compound: CC1=C2C(=CC=C1)N=C(N(C2=O)C3=CC=CC=C3C)CN4C=NC5=C(N=CN=C54)N
# Summary of the method: as §1
target,measurement,setting,value
SNX24 (UniProt Q9Y343),log2 fold change,[1],inactive: 0.016
same,log2 fold change,[2],inactive: 0.003
same,log2 fold change,[3],inactive: 0.047
same,log2 fold change,[4],inactive: 0.031
SNX10 (UniProt Q9Y5X0),log2 fold change,[3],inactive: 0.187
SMIM1 (UniProt B2RUZ4),log2 fold change,[1],inactive: 0.053
same,log2 fold change,[2],inactive: -0.054
same,log2 fold change,[4],inactive: -0.028
SMDT1 (UniProt Q9H4I9),log2 fold change,[1],inactive: -0.145
same,log2 fold change,[2],inactive: 0.131
same,log2 fold change,[3],inactive: 0.067
same,log2 fold change,[4],inactive: -0.094
SNX25 (UniProt Q9H3E2),log2 fold change,[3],inactive: -0.05
SOHLH2 isoform 3 (UniProt Q9NX45),log2 fold change,[1],inactive: 0.019
same,log2 fold change,[2],inactive: -0.058
same,log2 fold change,[3],inactive: -0.03
same,log2 fold change,[4],inactive: -0.007
SOSTDC1 isoform 2 (UniProt Q6X4U4),log2 fold change,[3],inactive: 0.068
SMPD2 (UniProt O60906),log2 fold change,[3],inactive: -0.244
same,log2 fold change,[4],inactive: -0.05
SMIM15 (UniProt Q7Z3B0),log2 fold change,[5],inactive: 0.008
same,log2 fold change,[3],inactive: -0.23
same,log2 fold change,[4],inactive: -0.029
SMR3B (UniProt P02814),log2 fold change,[4],inactive: 0.085
SNAPC3 (UniProt Q92966),log2 fold change,[1],inactive: 0.118
same,log2 fold change,[2],inactive: -0.312
same,log2 fold change,[3],inactive: -0.076
same,log2 fold change,[4],inactive: 0.05
SNRPN isoform 2 (UniProt P63162),log2 fold change,[5],inactive: 0.076
same,log2 fold change,[4],inactive: -0.201
SNAP47 (UniProt Q5SQN1),log2 fold change,[1],inactive: 0.099
same,log2 fold change,[2],inactive: -0.028
same,log2 fold change,[3],inactive: 0.002
same,log2 fold change,[4],inactive: -0.016
SNX13 (UniProt Q9Y5W8),log2 fold change,[1],inactive: 0.079
same,log2 fold change,[2],inactive: -0.102
same,log2 fold change,[3],inactive: 0.034
SMOX isoform 6 (UniProt Q9NWM0),log2 fold change,[3],inactive: 0.015
SP3 (UniProt Q02447),log2 fold change,[1],inactive: 0.075
same,log2 fold change,[2],inactive: -0.068
same,log2 fold change,[3],inactive: 0.001
same,log2 fold change,[4],inactive: 0.049
SNX33 (UniProt Q8WV41),log2 fold change,[1],inactive: -0.227
same,log2 fold change,[2],inactive: -0.008
same,log2 fold change,[3],inactive: 0.047
SMPD1 (UniProt P17405),log2 fold change,[1],inactive: 0.016
same,log2 fold change,[2],inactive: 0.038
same,log2 fold change,[3],inactive: -0.012
SP6 (UniProt Q3SY56),log2 fold change,[5],inactive: 0.013
same,log2 fold change,[3],inactive: -0.108
same,log2 fold change,[4],inactive: -0.005
SMARCA4 isoform 4 (UniProt P51532),log2 fold change,[3],inactive: -0.007
same,log2 fold change,[4],inactive: 0.131
SMARCC2 isoform 3 (UniProt Q8TAQ2),log2 fold change,[1],inactive: 0.074
same,log2 fold change,[2],inactive: -0.122
same,log2 fold change,[3],inactive: -0.001
SNX19 (UniProt Q92543),log2 fold change,[3],inactive: 0.061
same,log2 fold change,[4],inactive: -0.013
SNX30 (UniProt Q5VWJ9),log2 fold change,[1],inactive: -0.019
same,log2 fold change,[2],inactive: 0.06
same,log2 fold change,[3],inactive: 0.086
same,log2 fold change,[4],inactive: -0.011
SNRNP35 isoform 2 (UniProt Q16560),log2 fold change,[3],inactive: 0.022
same,log2 fold change,[4],inactive: 0.307
SMPDL3B (UniProt Q92485),log2 fold change,[5],inactive: 0.052
same,log2 fold change,[3],inactive: -0.02
same,log2 fold change,[4],inactive: -0.059
SOX11 (UniProt P35716),log2 fold change,[5],inactive: -0.077
SPANXB1 (UniProt Q9NS25),log2 fold change,[4],inactive: -0.154
"SMIM26, A0A096LP01",log2 fold change,[4],inactive: 0.316
SNAP23 isoform 2 (UniProt O00161),log2 fold change,[5],inactive: 0.045
same,log2 fold change,[4],inactive: -0.038
SNAPC5 (UniProt O75971),log2 fold change,[5],inactive: -0.036
same,log2 fold change,[4],inactive: 0.129
SMIM10L1 (UniProt P0DMW3),log2 fold change,[4],inactive: -0.018
SNAPC2 (UniProt Q13487),log2 fold change,[1],inactive: 0.107
same,log2 fold change,[2],inactive: 0.302
same,log2 fold change,[3],inactive: 0.101
same,log2 fold change,[4],inactive: 0.004
SMARCD3 (UniProt Q6STE5),log2 fold change,[3],inactive: 0.146
SNX29 (UniProt Q8TEQ0),log2 fold change,[4],inactive: 0
SMPDL3A (UniProt Q92484),log2 fold change,[5],inactive: -0.146
SMIM11A (UniProt P58511),log2 fold change,[5],inactive: 0.166
SNRPD2 (UniProt K7EJB5),log2 fold change,[5],inactive: 0.024
same,log2 fold change,[3],inactive: -0.047

# Part of the list above in another layout.
target	measurement	setting	value
SMPD2 (UniProt O60906)	log2 fold change	[4]	inactive: -0.05
SMIM15 (UniProt Q7Z3B0)	log2 fold change	[5]	inactive: 0.008
same	log2 fold change	[3]	inactive: -0.23
same	log2 fold change	[4]	inactive: -0.029
SMR3B (UniProt P02814)	log2 fold change	[4]	inactive: 0.085
